Data taken from ChEMBL document CHEMBL3988442, “University of Dundee, Small-Polar-MMV Screening Library” (2021).

Chains of the proteins cited; added tags and fusions are not shown.
UniProt E9BF75, entry or part of it: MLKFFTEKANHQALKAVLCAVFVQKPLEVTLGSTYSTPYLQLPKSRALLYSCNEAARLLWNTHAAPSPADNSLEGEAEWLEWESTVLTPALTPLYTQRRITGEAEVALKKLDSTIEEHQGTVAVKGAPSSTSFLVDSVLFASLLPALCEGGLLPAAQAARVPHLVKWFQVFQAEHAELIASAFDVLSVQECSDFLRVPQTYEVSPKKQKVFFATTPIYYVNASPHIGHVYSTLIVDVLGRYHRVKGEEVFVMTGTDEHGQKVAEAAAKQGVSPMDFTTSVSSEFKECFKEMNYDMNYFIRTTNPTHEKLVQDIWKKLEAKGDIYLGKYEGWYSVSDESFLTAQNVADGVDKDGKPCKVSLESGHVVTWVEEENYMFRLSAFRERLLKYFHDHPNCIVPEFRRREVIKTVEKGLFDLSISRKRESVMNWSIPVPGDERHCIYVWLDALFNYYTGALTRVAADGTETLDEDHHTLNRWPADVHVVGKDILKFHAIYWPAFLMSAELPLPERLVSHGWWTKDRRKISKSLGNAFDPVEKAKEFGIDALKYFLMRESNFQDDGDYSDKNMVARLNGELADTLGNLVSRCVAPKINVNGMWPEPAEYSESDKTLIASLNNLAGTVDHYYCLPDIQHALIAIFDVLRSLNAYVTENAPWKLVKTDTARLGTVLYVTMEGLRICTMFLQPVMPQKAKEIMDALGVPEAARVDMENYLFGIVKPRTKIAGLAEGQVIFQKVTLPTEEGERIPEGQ

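Primary screen of methionyl-tRNA synthetase; the read-out is not stated. Target: Methionyl-tRNA synthetase (putative), Leishmania donovani (UniProt E9BF75). The test concentration is not given. The values are filed as inhibition. Of about 68,000 compounds tested this way, about 24 (0.035%) reached 50% or more in at least one test.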

All values are in %.
How 0% and 100% were set is not recorded. Most values in the screen are low, and negative values occur.
Compounds were drawn at random from those tested, without regard to their results.

Compound,Inhibition
O=C(NCc1cccnc1-n1cncn1)C1CC2(CCNCC2)CN1 (stereo not shown),8.696
CC(=O)N1CCC2(CC1)C(=O)N(CC1CC1)c1ccccc12,9.764
CCc1noc(CC)c1CC(=O)N1CCN(C(C#N)C(C)C)CC1 (stereo not shown),12.58
COCCCNC(=O)C(C)n1cc(Br)cn1 (stereo not shown),-0.7444
OC1(CN2CCCCC2)CCN(c2cccc(C(F)(F)F)n2)C1 (stereo not shown),15.93
Cc1cc2c(cc1C)OC(C(=O)NCCNC(=O)C1CCCC1)C2 (stereo not shown),3.896
CC(C)n1cc(N2CC(C(=O)N3CCc4ccccc4C3)CC2=O)cn1 (stereo not shown),-1.579
O=C(CNc1nc(C(F)(F)F)cs1)N1CCc2sccc2C1,9.89
Cc1cnn(CC2CN(Cc3ccccn3)CCO2)c1 (stereo not shown),14.04
CC(Cn1cccn1)NC(=O)N(C)Cc1ccsc1 (stereo not shown),10.95
Cc1nn(CCC(=O)NC(C(=O)O)c2c(C)n[nH]c2C)c(C)c1C (stereo not shown),17.53
CC(C)N(C)Cc1cc(=O)n2c(n1)CN(C(=O)c1ccnnc1)CCC2,16.39
CN(C)C[C@]12COC[C@H]1CN(Cc1ccccn1)C2,13.87
CCNC(=O)NCc1ccnc(N(C)C)n1,8.362
CC(C)Nc1cccc(CC2CCN(C)C2)n1 (stereo not shown),14.19
Cc1nc(CN2CCC3(CCCO3)CCC2=O)no1 (stereo not shown),12.29
Cc1ccc(CNc2cc(C(=O)N3CCOCC3)nc(C)n2)cc1,-6.203
CC(=O)N1N=C(c2ccco2)OC1C(=O)N(CC(C)C)CC(C)C (stereo not shown),14.17
Cc1csc2c(N3CCNC(C(=O)N4CCCC4)C3)ncnc12 (stereo not shown),11.76
C[C@@H]1CN(C2CCN(Cc3cnc(-c4cccs4)nc3)CC2)C[C@H](C)O1,8.273
CN(C1CCCC1)C(C)(C)C(=O)NCCNC(N)=O,11.03
Fc1cc(Cl)cnc1N1CCCC(c2nccn2Cc2ccncc2)C1 (stereo not shown),12.93
Cc1ccc(CNCc2nnc3n2CC(C(F)(F)F)CC3)cc1 (stereo not shown),7.063
Cc1nccn1-c1ccc(C(C)Nc2cnn(C)c(=O)c2Cl)cc1 (stereo not shown),19.26
COC[C@H]1CC[C@H]2[C@H](CCN2S(=O)(=O)Cc2ccccc2)O1,7.299
CCc1cnc(CNC(=O)N2CCCC(C(=O)NC)C2)s1 (stereo not shown),15.49
CCOc1ccc(OCCN2CCC(N3CCNC3=O)CC2)cc1,16.83
CN(CC1=CCCN(CCc2ccccn2)C1)C(=O)c1ccco1,7.56
Cc1cccc(C(=O)N2CCCN(Cc3cnn(C)c3)CC2)n1,3.681
Cn1c(Cn2cccn2)nnc1C1CCN(Cc2cccnc2N)CC1,7.965
CN(C)Cc1cn(-c2ccccc2C(=O)NCCC2CCCN2C)cn1 (stereo not shown),9.302
CN(C)Cc1nnn2c1CN(Cc1cccnc1)CCC2,8.982
CCCNC(=O)c1ccc2c(c1)C(=O)N(CC(C)C)C2=O,6.159
CC(C)(C)C(=O)Nc1ccc(Oc2ccsc2C(=O)O)cc1,15.09
Oc1cc(-c2nccs2)nc(C2CCN(Cc3cccs3)CC2)n1,13.02
Cc1cc(C[C@@H]2COC[C@@H]2NC(=O)CN2CCCCCC2)on1,3.733
Cc1cc(C)n(CC2CN(Cc3nc4ccccc4s3)CCO2)n1 (stereo not shown),24.5
Cc1ccc(O)c(CN2CCn3nc(C(=O)N4CCCC4)cc3C2)n1,2.941
Fc1ccc(NC2CCCN(Cc3ccncc3)C2)cc1 (stereo not shown),-3.015
CCn1ccnc1C1CCN(C(=O)C(O)c2ccc(Cl)cc2)CC1 (stereo not shown),12.75
Cc1cnn(CC2CCCN2Cc2nc3ccccc3c(=O)[nH]2)c1 (stereo not shown),13.25
CSCC(C)NCc1ccc2[nH]c(C)c(C)c2c1 (stereo not shown),4.124
Cc1ccc(C)c2c(O)cc(CNCc3ccc(S(N)(=O)=O)cc3)nc12,11.38
Cn1cncc1CN1CCC2(CCCN2c2ncccn2)CC1,11.5
Cc1cnn(C2CN(CCOc3cccc(C#N)c3)C2)c1,10.92
CNC(=O)c1cccc(CNC(C)c2cc(Cl)ccc2OC)c1 (stereo not shown),-1.045
COc1ccc(F)c(CNC2CCCc3nc(N(C)C)ncc32)c1 (stereo not shown),7.05
CCN(C)C(=O)c1cc(-c2cn(C(C)C)cn2)n2ccccc12,5.435
CN(CCc1nccs1)C(=O)C1(C#N)CCCCC1,12.53
CN(Cc1noc(C2CC2)n1)C1CCN(CCc2cccs2)C1 (stereo not shown),9.836
CC(=O)c1cc(C(=O)N2CCC3(CC2)Nc2ccccc2NC3=O)cs1,19.4
c1ccc(Oc2nccc3occc23)c(CN2CCCCC2)c1,18.75
CC(Nc1nc(-c2ccccc2)nc2c1CCNCC2)c1nccs1 (stereo not shown),17.98
O=C(c1cn(-c2cc(N3CCSCC3)ncn2)cn1)N1CCSCC1,6.404
CCn1ccnc1CN1CCN(Cc2cc(C#N)ccc2F)CC1,17.46
NC(=O)CCNC(=O)Cc1cccc(I)c1,1.397
C1CN(CC2CCOCC2)Cc2c(CN3CCOCC3)nnn2C1,8.904
CCc1nc(NS(=O)(=O)c2cccc(F)c2C)no1,13.96
COCc1noc(-c2ccc(N3CCC[C@H]3CO)nc2)n1,10.99
COCC1CCN(C(=O)c2cn(Cc3cccc(C(F)(F)F)c3)nn2)C1 (stereo not shown),4.885

For reference, 6 entries once more:

For Cc1ccc(CNc2cc(C(=O)N3CCOCC3)nc(C)n2)cc1 the result was -6.203%.
For O=C(c1cn(-c2cc(N3CCSCC3)ncn2)cn1)N1CCSCC1 the result was 6.404%.
For CCNC(=O)NCc1ccnc(N(C)C)n1 the result was 8.362%.
For CC(C)(C)C(=O)Nc1ccc(Oc2ccsc2C(=O)O)cc1 the result was 15.09%.
For Oc1cc(-c2nccs2)nc(C2CCN(Cc3cccs3)CC2)n1 the result was 13.02%.
For OC1(CN2CCCCC2)CCN(c2cccc(C(F)(F)F)n2)C1 (stereo not shown) the result was 15.93%.